Columns and labels:
[1] = target: T1, mSSTR1 (Mus musculus, UniProt P30873); experiment: inhibition of radioligand binding to cloned SRIF receptor mSSTR1; details: IC50 mSSTR1, cloned mouse receptor expressed on COS and CHO cells
T1 construct: expressed in transfected cells; host or cells: COS and CHO cells
Procedure: (§1) In vitro Bioassay: The effects of the various somatostatin analogs are tested in vitro for their ability to bind to isolated cloned receptors expressed on COS and CHO cells.
(§2) Five such receptor subtypes termed SSTR1 through SSTR5, have been cloned and are reported and described in Raynor et al., Molecular Pharmacology, 43, 838-844 (1993) and in Raynor et al., Molecular Pharmacology, 44, 385-392 (1993).

Protein sequences, listed by entry. Tags and fused reporters are not part of them. Lines headed by an entry give the natural chain unless they say otherwise; changes in a name come on top.
UniProt P30873: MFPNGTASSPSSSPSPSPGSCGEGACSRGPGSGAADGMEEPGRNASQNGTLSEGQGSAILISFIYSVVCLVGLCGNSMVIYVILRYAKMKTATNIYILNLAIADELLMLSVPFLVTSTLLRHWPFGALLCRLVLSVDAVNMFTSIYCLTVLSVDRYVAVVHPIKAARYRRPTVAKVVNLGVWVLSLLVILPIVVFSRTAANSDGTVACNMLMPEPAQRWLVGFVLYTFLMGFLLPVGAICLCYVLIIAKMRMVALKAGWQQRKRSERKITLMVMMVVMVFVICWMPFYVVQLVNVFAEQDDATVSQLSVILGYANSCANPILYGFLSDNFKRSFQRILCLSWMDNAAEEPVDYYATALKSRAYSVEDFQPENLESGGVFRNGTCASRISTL
UniProt P30875: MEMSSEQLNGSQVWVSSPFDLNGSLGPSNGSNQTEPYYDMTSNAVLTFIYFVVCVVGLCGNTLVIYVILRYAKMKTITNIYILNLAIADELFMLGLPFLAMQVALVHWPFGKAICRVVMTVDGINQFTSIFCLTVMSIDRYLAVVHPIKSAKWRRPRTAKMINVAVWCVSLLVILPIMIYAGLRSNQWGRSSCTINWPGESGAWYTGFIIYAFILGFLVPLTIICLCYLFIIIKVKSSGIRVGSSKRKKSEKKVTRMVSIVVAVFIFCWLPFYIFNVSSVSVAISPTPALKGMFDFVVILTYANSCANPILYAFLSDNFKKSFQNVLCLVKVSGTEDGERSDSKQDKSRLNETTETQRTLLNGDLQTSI
UniProt P30935: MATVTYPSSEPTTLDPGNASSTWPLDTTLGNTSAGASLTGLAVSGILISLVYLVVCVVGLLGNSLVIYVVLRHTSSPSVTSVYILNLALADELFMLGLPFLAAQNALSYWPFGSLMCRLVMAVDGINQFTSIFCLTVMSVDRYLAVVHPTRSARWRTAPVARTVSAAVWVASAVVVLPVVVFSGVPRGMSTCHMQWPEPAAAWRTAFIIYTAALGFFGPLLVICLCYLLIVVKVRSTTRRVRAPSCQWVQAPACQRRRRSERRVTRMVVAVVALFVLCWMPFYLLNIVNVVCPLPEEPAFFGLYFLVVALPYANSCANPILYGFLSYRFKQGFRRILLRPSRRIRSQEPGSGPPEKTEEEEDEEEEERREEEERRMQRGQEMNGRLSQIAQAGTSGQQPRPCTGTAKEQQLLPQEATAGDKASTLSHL

[2] = target: T2, mSSTR2 (Mus musculus, UniProt P30875); experiment: inhibition of radioligand binding to cloned SRIF receptor mSSTR2
T2 construct: expressed in transfected cells; host or cells: COS and CHO cells
Procedure: as §1, §2

[3] = target: T3, mSSTR3 (Mus musculus, UniProt P30935); experiment: inhibition of radioligand binding to cloned SRIF receptor mSSTR3; details: IC50 mSSTR3, cloned mouse receptor expressed on COS and CHO cells
T3 construct: expressed in transfected cells; host or cells: COS and CHO cells
Procedure: as §1, §2

## C[C@@H](O)[C@@H]1NC(=O)[C@H](CCCCN)NC(=O)[C@@H](Cc2c[nH]c3ccccc23)NC(=O)[C@H](Cc2ccccc2)NC(=O)[C@H](Cc2ccccc2)NC(=O)[C@@H](N)CSSC[C@@H](C(=O)O)NC(=O)[C@H](Cc2ccccc2)NC1=O [ODT8, (cyclo 1-8)H-Cys-Phe-Phe-D-Trp-Lys-Thr-Phe-Cys-OH, reference compound]
[1]
  IC50: 1 nM
[2]
  IC50: 35 nM
[3]
  IC50: 4 nM
